Binding data for 5 molecules are collected here from paper PMC11876699, “Elongator is a microtubule polymerase selective for polyglutamylated tubulin” (The EMBO Journal, 2025).

These are yes or no findings as the source states them, for the method shown. Some entries that bind do so weakly or less than the wild type. Tags and fused reporters may be left off the sequences shown.

For experiment [1], the target named is T1, His6-PC-SNAP-Elp3 (Drosophila, co-expressed in Sf9) (Drosophila melanogaster) (UniProt Q9VQZ6).
T1 sequence: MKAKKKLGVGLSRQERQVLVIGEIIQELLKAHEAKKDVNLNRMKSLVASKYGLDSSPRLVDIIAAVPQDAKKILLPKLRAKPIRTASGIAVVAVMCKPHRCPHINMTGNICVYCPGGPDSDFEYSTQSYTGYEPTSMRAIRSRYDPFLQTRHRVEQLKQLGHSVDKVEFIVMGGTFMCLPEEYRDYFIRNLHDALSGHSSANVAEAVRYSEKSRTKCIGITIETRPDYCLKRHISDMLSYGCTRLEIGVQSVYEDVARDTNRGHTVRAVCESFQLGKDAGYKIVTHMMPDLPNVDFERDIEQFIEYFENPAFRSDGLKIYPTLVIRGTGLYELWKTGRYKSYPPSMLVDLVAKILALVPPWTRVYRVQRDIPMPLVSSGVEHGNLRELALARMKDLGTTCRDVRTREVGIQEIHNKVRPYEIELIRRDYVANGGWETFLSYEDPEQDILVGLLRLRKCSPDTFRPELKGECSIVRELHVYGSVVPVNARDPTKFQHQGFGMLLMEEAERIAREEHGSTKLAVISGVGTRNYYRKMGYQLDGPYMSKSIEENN
In words: co-purification (Protein C affinity, heparin, size exclusion); Elp1, Elp2 and His-PC-SNAP-Elp3 co-expressed in Sf9; held by the PC tag of Elp3.

In experiment [2] the target is T2, GST-Elp4 (Drosophila, co-expressed in E. coli) (Drosophila) (UniProt Q9VMQ7).
T2 sequence: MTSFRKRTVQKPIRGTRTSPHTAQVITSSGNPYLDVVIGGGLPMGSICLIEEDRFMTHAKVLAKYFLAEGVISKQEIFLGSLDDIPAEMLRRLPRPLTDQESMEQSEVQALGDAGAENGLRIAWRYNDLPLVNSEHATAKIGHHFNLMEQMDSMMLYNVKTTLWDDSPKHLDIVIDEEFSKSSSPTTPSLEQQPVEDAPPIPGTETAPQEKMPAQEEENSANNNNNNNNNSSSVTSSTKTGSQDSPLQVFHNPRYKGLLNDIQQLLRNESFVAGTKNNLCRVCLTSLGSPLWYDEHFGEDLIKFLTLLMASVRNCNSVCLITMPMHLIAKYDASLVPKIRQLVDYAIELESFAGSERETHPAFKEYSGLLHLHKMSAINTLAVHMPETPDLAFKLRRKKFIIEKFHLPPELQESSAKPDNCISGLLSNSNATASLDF
Put plainly: co-purification (glutathione affinity, TEV elution, size exclusion); GST-Elp4, Elp5 and Elp6 co-expressed in E. coli; held by the GST of Elp4; Superdex 200 in Elongator buffer. Background: Size exclusion chromatography separates by hydrodynamic size, large species first.

For experiment [3], the target named is T3, Elp456 subcomplex (Drosophila, wild type, untagged) (Drosophila) (UniProt Q9VMQ7+Q24050+Q9VFW4).
T3 sequence 1: T2 sequence
T3 sequence 2: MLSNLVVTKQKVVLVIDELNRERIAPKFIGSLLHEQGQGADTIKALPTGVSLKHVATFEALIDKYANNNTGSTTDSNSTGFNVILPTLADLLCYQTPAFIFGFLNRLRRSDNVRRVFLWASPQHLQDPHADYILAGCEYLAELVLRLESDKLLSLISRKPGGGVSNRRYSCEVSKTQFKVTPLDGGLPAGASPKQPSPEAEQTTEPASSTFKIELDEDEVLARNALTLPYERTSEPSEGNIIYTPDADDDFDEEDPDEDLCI
T3 sequence 3: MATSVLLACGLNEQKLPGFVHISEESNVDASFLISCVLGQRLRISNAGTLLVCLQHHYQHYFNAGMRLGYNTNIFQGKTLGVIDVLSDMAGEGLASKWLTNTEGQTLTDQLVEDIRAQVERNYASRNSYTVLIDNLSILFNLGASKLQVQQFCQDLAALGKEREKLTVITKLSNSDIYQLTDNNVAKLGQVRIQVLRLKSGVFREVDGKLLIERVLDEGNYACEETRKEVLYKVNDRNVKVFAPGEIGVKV
Put plainly: cross-linking; Elp456 with the Glu10 peptide, sulfo-SDA (2 mM, 365 nm UV) or EDC (5 mM, 30 min on ice), trypsin, LC-MS/MS, XiSearch; both purified.

B1: Elp1 (Drosophila, untagged, co-expressed in Sf9) (protein, UniProt Q9VGK7 1-1252)
chain: MRNLKLRYCKELNAVAHPQHLLLQPELNGGASDIYFVVADNKIYAVQESGDVRLKVIADLPDIVGVEFLQLDNAICVASGAGEVILVDPQTGATSEGTFCDVGIESMAWSPNQEVVAFVTRTHNVVLMTSTFDVIAEQPLDAELDPDQQFVNVGWGKKETQFHGSEGKQAAKQKESDSTFIRDEQELNQDVSISWRGDGEFFVVSYVAAQLGRTFKVYDSEGKLNHTAEKSANLKDSVVWRPTGNWIAVPQQFPNKSTIALFEKNGLRHRELVLPFDLQEEPVVQLRWSEDSDILAIRTCAKEEQRVYLYTIGNYHWYLKQVLIFEQADPLALLHWDTRCGAEHTLHVLKESGKHLVYRWAFAVDRNNSIVGVIDGKRLLLTDFDEAIVPPPMSKIVLKFETYINAFISHGTSLWVYTCDRKIYLNEHIHTLGKELQKPIMLMPDAELSGLHLANLTHFSPHYLLATHSSAGSTRLLLLSYKDNDNKPGEWFYRVHSSVRINGLVNAVAVAPYAMNEFYVQTVNNGHTYEVSLKADKTLKVERSYVQLHEPADQIDWVIVKGCIWDGYTGALVTLRNQHLLHIDGYRIGEDVTSFCVVTNYLVYTQLNAMHFVQLDDRRQVASRNIERGAKIVTAVARKARVVLQLPRGNLEAICPRVLVLELVGDLLERGKYQKAIEMSRKQRINLNIIFDHDVKRFVSSVGAFLNDINEPQWLCLFLSELQNEDFTKGMYSSNYDASKQTYPSDYRVDQKVEYVCRLLEQQMNRFVSRFRLPLITAYVKLGCLEMALQVIWKEQQEDASLADQLLQHLLYLVDVNDLYNVALGTYDFGLVLFVAQKSQKDPKEFLPYLNDLKALPIDYRKFRIDDHLKRYTSALSHLAACGEQHYEEALEYIRKHGLYTDGLAFYREHIEFQKNIYVAYADHLRAIAKLDNASLMYERGGQLQQALLSAKHTLDWQRVLVLAKKLSEPLDQVAQSLVGPLQQQGRHMEAYELVKEHCQDRKRQFDVLLEGHLYSRAIYEAGLEDDDVSEKIAPALLAYGVQLESSLQADLQLFLDYKQRLLDIRRNQAKSGEGYIDTDVNLKEVDLLSDTTSLHSSQYSGTSRRTGKTFRSSKNRRKHERKLFSLKPGNPFEDIALIDALHNHVTKIAQQQQPVRDTCKALLQLANAADADPLAAALQREFKTLLQAVDAALDEIWTPELRGNGLMADHLTGPNVDYLALQKEQRYALLSPLKRFKPQLIMMDWQHEILQ
For the molecule B1, the binding entry in experiment [1] is listed as “binds”.

B2: Elp2 (Drosophila, untagged, co-expressed in Sf9) (protein, UniProt Q7K4B3 1-794)
chain: MQVENLHTSVACNRCTECADWGPNGWIAYGACNAIAIMDPKFQGNSAKVLFTLVEHTKRVNTVRWLDCDKLLSGGDDAIAILWELDETGTTKSFTLKGHTSGVNTVDGIRQQDGSWLLATAAADTTIKLWTFQDNNYVCFQTISLSDGFCFCLRLQLLPKSNQVLLAFSGDDETVSLWSEQVETAGEGDSLGRQFQRKHKLTGHEDWVRGLDFVVDGEDLLLASGSQDNFIRLWRIAPRSKEQMQENRVDLHQLSHNDDEIKVEEKILQLGKEAWYAVSLESVLYGHEGWIYGVHWHKTPDQELRLLSASIDKTVIIWAPTEEGIWLEEVRVGEVGGNSVGFYGGKFSGDGHSIMAHSYQGGFHIWSQDPDRPQLWTPGVIVGGHYGEVRDLAWEHSGAYLMTASADQTTRLHAPWLQDGANPTWHELARPQIHGYDMQALALLSRYKFASGAEEKIVRTFQAPANFIENFRHISGIENDDAGDVLLDSLPKGASVPSLGLSNKAVYKVDSEVESTSKTSKDEYPDNYFVPIALETPPQEETLMQNTLWPELQKLYGHGYEIFALAATADGSLLASTCKASNAEHAQIILWNPSNWKQIQKLSGHQLTVTQLSFSPDSRYLLSVSRDRRWCLYERQDSSVSYQLVASTDKSNGVHTRIIWSCDWSHDGQFFVTSSRDGKVVVWKKEEDCKESSLNGWQANGVLELKNESITAVAFSNSYLSGTDDTYILALGTETGLIKIYQFVRGAWKLLSDLNKSQAHHLTVRRLQFRPGKQLQLASCGEDHLVRIYDIKLT
Consider B2, for which the binding result in experiment [1] is listed as “binds”.

B3: Elp6 (Drosophila, untagged, co-expressed in E. coli) (protein, UniProt Q9VFW4 1-251)
chain: T3 sequence 3
For B3, the binding entry in experiment [2] is given as “binds”.

With EEEEEEEEEE [Glu10 peptide (10 linear glutamate residues)], the binding entry in experiment [3] is “binds”.

B4: Elp5 (Drosophila, untagged, co-expressed in E. coli) (protein, UniProt Q24050 1-262)
chain: T3 sequence 2
Take B4: the binding entry in experiment [2] is “binds”.
